Reference: PMC6572798
No constants are given. Whether binding was seen depends on the method and setting. Binding seen in cells or lysates may run through a third protein. Binding can be weak; no strength is given.

By UniProt entry, the sequences of proteins in these tests, tags left out. Where a name states a change or a piece, a line headed by the entry shows the natural chain unless it says otherwise.
UniProt A6IA08: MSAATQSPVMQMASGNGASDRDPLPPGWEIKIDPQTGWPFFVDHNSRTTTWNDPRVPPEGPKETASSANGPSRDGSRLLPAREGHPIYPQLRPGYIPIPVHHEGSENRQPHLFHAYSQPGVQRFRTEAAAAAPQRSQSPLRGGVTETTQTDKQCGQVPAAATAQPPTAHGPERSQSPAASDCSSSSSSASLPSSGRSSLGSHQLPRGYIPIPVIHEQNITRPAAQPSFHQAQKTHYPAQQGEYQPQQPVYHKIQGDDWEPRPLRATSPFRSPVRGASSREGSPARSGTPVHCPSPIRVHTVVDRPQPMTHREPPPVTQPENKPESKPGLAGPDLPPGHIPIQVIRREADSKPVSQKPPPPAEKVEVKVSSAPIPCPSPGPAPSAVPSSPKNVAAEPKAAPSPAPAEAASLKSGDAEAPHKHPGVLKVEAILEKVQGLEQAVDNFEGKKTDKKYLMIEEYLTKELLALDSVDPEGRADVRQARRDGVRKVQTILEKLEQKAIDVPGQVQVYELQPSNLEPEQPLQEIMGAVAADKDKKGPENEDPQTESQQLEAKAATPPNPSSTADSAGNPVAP
UniProt P21707: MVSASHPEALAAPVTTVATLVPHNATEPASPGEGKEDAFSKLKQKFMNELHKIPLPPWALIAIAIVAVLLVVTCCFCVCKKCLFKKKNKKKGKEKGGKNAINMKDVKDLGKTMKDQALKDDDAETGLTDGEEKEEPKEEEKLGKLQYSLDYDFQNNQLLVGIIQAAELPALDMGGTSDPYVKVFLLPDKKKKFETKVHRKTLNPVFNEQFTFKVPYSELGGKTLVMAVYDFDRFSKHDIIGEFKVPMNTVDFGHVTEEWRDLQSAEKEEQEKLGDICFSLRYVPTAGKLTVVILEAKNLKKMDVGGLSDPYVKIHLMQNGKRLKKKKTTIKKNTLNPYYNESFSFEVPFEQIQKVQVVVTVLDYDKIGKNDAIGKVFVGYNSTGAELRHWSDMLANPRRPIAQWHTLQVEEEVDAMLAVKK

What was measured:
[1] = biological target: T1, ATG5 (rat (endogenous in primary neurons)) (UniProt Q3MQ06); experiment: co-IP; endogenous proteins; precipitated with an antibody to one partner and blotted for the other (Fig. 4b BAG3 and LC3; Fig. 4d ATG5 antibody, probed for BAG3; Fig. 5b BAG3 antibody, probed for synaptotagmin 1); lysate and buffer not told
T1 sequence: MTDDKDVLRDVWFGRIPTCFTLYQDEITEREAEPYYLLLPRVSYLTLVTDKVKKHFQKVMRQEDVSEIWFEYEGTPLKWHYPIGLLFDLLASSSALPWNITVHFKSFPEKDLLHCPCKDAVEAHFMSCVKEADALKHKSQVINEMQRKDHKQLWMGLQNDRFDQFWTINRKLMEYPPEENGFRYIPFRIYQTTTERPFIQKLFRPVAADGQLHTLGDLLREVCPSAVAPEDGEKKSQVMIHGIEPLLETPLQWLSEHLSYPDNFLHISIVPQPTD

[2] = biological target: BAG3 (rat (endogenous in primary hippocampal and cortical neurons)) (UniProt A6IA08); experiment: as above

Row | binding [1] | binding [2] | Substance
1 | binds | – | BAG3 (from UniProt A6IA08)
2 | – | binds | synaptotagmin 1 (from UniProt P21707 1-421)
